For part of these data: Some peptides are written in HELM: one residue between dots, names in brackets for other building blocks, links after the first $. The star is where a group is joined. Pbf = Cc1c(C)c(S(=O)(=O)*)c(C)c2c1OC(C)(C)C2; Dde = CC(=C1C(=O)CC(C)(C)CC1=O)*; Boc = CC(C)(C)OC(=O)*; OAll = C=CCO*
Experiments:
[1] = general procedure: Fmoc solid-phase peptide synthesis; H-Arg(Pbf)-2-chlorotrityl resin (0.58 meq/g, 100–200 mesh); HBTU/DIPEA; conditions: for step yield: late stage modification step; for crude mass / crude yield: whole synthesis; for cyclisation yield: cyclisation step

Question: Which step yield [1] does the source give for “[D-W(Boc)-R(Pbf)-W(Boc)-R(Pbf)-K(Dde)-W(Boc)-R(Pbf)-W(Boc)-R(Pbf)]” here?
Answer: 69%

Question: Which crude mass ([1]; scale 0.58 mmol) does the source give for “H-K(Dde)W(Boc)R(Pbf)W(Boc)R(Pbf)K(Dde)W(Boc)R(Pbf)W(Boc)R(Pbf)-OH” here?
Answer: 432 mg

Question: What about the crude yield ([1]; scale of the general procedure 0.58 mmol) of the same substance?
Answer: 22%

Question: Which step yield [1] does the source give for “[K(COCH2CH2COOH)-W(Boc)-R(Pbf)-W(Boc)-R(Pbf)-W(Boc)-R(Pbf)-W(Boc)-R(Pbf)]” here?
Answer: 98%

Question: Which step yield [1] does the source give for “[K-W(Boc)-R(Pbf)-W(Boc)-R(Pbf)-W(Boc)-R(Pbf)-W(Boc)-R(Pbf)]” here?
Answer: 93%

Question: For “[K(Dde)-W(Boc)-R(Pbf)-W(Boc)-R(Pbf)-W(Boc)-R(Pbf)-W(Boc)-R(Pbf)]”, which cyclisation yield [1] is on record?
Answer: 88%

Question: For “[D(OAll)-W(Boc)-R(Pbf)-W(Boc)-R(Pbf)-K(Dde)-W(Boc)-R(Pbf)-W(Boc)-R(Pbf)]”, which cyclisation yield [1] is on record?
Answer: 91%

Question: For “PEPTIDE1{K.W.R.W.R.K.W.R.W.R}|PEPTIDE2{[KSuc].W.R.W.R.W.R.W.R}|PEPTIDE3{[KSuc].W.R.W.R.W.R.W.R}$PEPTIDE1,PEPTIDE1,1:R1-10:R2|PEPTIDE2,PEPTIDE2,1:R1-9:R2|PEPTIDE3,PEPTIDE3,1:R1-9:R2|PEPTIDE1,PEPTIDE2,1:R3-1:R3|PEPTIDE1,PEPTIDE3,6:R3-1:R3$$$V2.0”, which step yield (peptide synthesis; late stage modification step) is on record?
Answer: 78%

Question: What about the difficulty met (peptide synthesis; whole synthesis) of the same substance?
Answer: synthesized tricyclic [(WR)4]3 after two unsuccessful synthetic strategies

Question: Which step yield [1] does the source give for “[D(OAll)-W(Boc)-R(Pbf)-W(Boc)-R(Pbf)-K-W(Boc)-R(Pbf)-W(Boc)-R(Pbf)]” here?
Answer: 65%

Question: Which results are given for “H-D(OAll)W(Boc)R(Pbf)W(Boc)R(Pbf)K(Dde)W(Boc)R(Pbf)W(Boc)R(Pbf)-OH”?
Answer: crude mass ([1]; scale 0.58 mmol): 460 mg; crude yield ([1]; scale 0.58 mmol): 24%
